Experimental data: PubChem BioAssay AID652259 (Drosophila RNAi Screening Center, 2013)
The deposit covers about 22,000 reagents; this is a random part of those that have a named target and a result. In the full data, 233 (1.1%) are marked active. 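Light values are raw, unnormalised plate reads; the ratio scores behind the reporter calls were not deposited.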 A number with no mark means an inactive call. A plus sign joins genes that one reagent is predicted to hit. No sequences are given here. Not stated in the record: the amount of reagent, the time to read-out, the dose of the treatment.

Aim: 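Knock-downs that push a Wingless-driven reporter up or down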 (primary screen)
Cell system: Drosophila clone 8 imaginal disc epithelial cells
Reagent: long dsRNA against Drosophila genes
Treatment: pathway stimulated by co-transfected Wingless expression plasmid
Detection: 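Firefly luciferase from a tcf-site Wingless reporter, measured alongside co-transfected Renilla luciferase that tracks transfection; pathway stimulated by a Wingless plasmid; the firefly-to-Renilla ratio is not deposited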
Reading the numbers: firefly reporter light: higher = more Wg reporter light, before normalisation; Renilla control light: higher = more transfected or surviving cells
Hit rule: 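Strong candidates differ from their plate mean by at least two out of four per-plate statistical tests; weak candidates meet just one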
Calls: active = candidate regulator (raises or lowers reporter); inactive = not a candidate

Silencing of Vps24 (GeneID 40542) [DRSC12332] came out at: firefly reporter light, replicate 1 = 10968; Renilla control light, replicate 1 = 3056.
Knock-down of FER (GeneID 41118) [DRSC12735] resulted in: firefly reporter light, replicate 1 = 4873; Renilla control light, replicate 1 = 2395.
FER (GeneID 41118) [DRSC16673] gave firefly reporter light, replicate 1 = 10576; Renilla control light, replicate 1 = 3289.
Against alpha4GT2 (GeneID 43124) [DRSC13732] the deposit lists firefly reporter light, replicate 1 = 3469; Renilla control light, replicate 1 = 1504.
Against alpha4GT2 (GeneID 43124) [DRSC15905], the entry reads firefly reporter light, replicate 1 = 19634; Renilla control light, replicate 1 = 15410.
After knock-down of Gclm (GeneID 248194) [DRSC15677], the record shows firefly reporter light, replicate 1 = 2336; firefly reporter light, replicate 2 = 5292; Renilla control light, replicate 1 = 1068; Renilla control light, replicate 2 = 1623.
Pstk + CG14210 + Tim9b [DRSC19566] showed firefly reporter light, replicate 1 = 15261; Renilla control light, replicate 1 = 9285.
Knock-down of Phlpp (GeneID 35178) [DRSC02065] resulted in: firefly reporter light, replicate 1 = 3980; firefly reporter light, replicate 2 = 10221; Renilla control light, replicate 1 = 1057; Renilla control light, replicate 2 = 3827.
Phlpp (GeneID 35178) [DRSC22808] gave firefly reporter light, replicate 1 = 4.27e5; firefly reporter light, replicate 2 = 4.48e5; Renilla control light, replicate 1 = 1.76e5; Renilla control light, replicate 2 = 1.98e5.
After knock-down of CG11811 (GeneID 39213) [DRSC09862], the record shows firefly reporter light, replicate 1 = 5617; Renilla control light, replicate 1 = 1936.
Against CG30031 + deltaTry + gammaTry [DRSC07622] the deposit lists firefly reporter light, replicate 1 = 7122; Renilla control light, replicate 1 = 3762.
With knock-down of COX8 (GeneID 40390) [DRSC11814] the results were firefly reporter light, replicate 1 = 11296; Renilla control light, replicate 1 = 2936.
Knock-down of CG34436 (GeneID 5740743) [DRSC15164] resulted in: firefly reporter light, replicate 1 = 7941; Renilla control light, replicate 1 = 3043.
Depletion of CG14985 (GeneID 38470) [DRSC08078] resulted in: firefly reporter light, replicate 1 = 2105; Renilla control light, replicate 1 = 1216.
Knock-down of CG14985 (GeneID 38470) [DRSC08443] came out at: firefly reporter light, replicate 1 = 7336; Renilla control light, replicate 1 = 3098.
Knock-down of Tmf (GeneID 31629) [DRSC18368] resulted in: firefly reporter light, replicate 1 = 28603; Renilla control light, replicate 1 = 8545.
Der-1 (GeneID 33369) [DRSC00301] scored firefly reporter light, replicate 1 = 10018; Renilla control light, replicate 1 = 4493.
For Trm1 (GeneID 34656) [DRSC02951], the entry reads firefly reporter light, replicate 1 = 10541; Renilla control light, replicate 1 = 3638.
CG15012 (GeneID 38529) [DRSC08465] gave firefly reporter light, replicate 1 = 6516; Renilla control light, replicate 1 = 1993.
Depletion of thoc6 (GeneID 39394) [DRSC10528] came out at: firefly reporter light, replicate 1 = 4330; Renilla control light, replicate 1 = 1817.
Pep (GeneID 45961) [DRSC11252] showed firefly reporter light, replicate 1 = 3376; Renilla control light, replicate 1 = 1929.
Against CG12964 (GeneID 36714) [DRSC06266], the entry reads reporter change call, replicate 1 = Wg reporter activity raised; firefly reporter light, replicate 1 = 8192; firefly reporter light, replicate 2 = 8.49e5; Renilla control light, replicate 1 = 1686; Renilla control light, replicate 2 = 4.01e5.
For CG31213 (GeneID 42382) [DRSC14312], the values are firefly reporter light, replicate 1 = 18888; Renilla control light, replicate 1 = 4245.
CG31213 (GeneID 42382) [DRSC15647] scored firefly reporter light, replicate 1 = 18490; Renilla control light, replicate 1 = 4154.
Against Ufd1 (GeneID 39254) [DRSC10607], the values are firefly reporter light, replicate 1 = 6336; Renilla control light, replicate 1 = 3480.

3 consecutive entries from above, for reference:
CG15012 (GeneID 38529) [DRSC08465] | firefly reporter light, replicate 1 = 6516; Renilla control light, replicate 1 = 1993
thoc6 (GeneID 39394) [DRSC10528] | firefly reporter light, replicate 1 = 4330; Renilla control light, replicate 1 = 1817
Pep (GeneID 45961) [DRSC11252] | firefly reporter light, replicate 1 = 3376; Renilla control light, replicate 1 = 1929
